Reference: paper PMC7480108
These are yes or no findings as the source states them, for the method shown. Binding seen in cells or lysates may run through a third protein. Tags and fused reporters may be left off the sequences shown.

Target: T1, TKS4^GFP (UniProt A1X283)
T1 sequence: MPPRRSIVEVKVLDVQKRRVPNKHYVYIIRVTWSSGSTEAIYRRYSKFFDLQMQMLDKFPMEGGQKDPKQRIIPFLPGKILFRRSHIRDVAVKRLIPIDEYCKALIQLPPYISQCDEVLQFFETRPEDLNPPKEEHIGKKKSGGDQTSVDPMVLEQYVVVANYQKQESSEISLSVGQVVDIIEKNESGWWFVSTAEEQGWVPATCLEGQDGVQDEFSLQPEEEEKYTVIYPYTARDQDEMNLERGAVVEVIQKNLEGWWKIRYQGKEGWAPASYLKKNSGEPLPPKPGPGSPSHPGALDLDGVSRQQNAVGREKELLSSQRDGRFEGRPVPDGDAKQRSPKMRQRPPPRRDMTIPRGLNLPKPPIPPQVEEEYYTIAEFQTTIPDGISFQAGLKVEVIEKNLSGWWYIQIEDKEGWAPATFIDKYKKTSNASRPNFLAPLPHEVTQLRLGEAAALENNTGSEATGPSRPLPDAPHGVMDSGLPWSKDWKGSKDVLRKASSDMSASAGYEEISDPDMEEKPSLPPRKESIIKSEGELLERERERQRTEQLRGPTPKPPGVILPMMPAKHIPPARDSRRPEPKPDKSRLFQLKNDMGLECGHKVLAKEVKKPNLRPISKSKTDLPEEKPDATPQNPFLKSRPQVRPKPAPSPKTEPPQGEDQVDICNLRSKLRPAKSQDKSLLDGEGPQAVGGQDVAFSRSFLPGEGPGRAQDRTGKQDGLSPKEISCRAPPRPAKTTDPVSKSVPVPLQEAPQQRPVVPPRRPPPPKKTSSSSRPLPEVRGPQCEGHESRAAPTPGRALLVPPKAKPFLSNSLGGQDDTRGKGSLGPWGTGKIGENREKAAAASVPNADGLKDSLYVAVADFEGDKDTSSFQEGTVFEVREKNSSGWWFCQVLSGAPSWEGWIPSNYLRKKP
Test: co-IP; GFP-Trap (anti-GFP nanobody beads) from NP-40 lysates of MDA-MB-231 cells expressing GFP-tagged constructs, 1 h 4°C; immunoblotting of bound proteins

B1: endogenous FGD1 (faciogenital dysplasia protein 1) (protein, UniProt P98174 1-961)
chain: MHGHRAPGGAGPSEPEHPATNPPGAAPPACADSDPGASEPGLLARRGSGSALGGPLDPQFVGPSDTSLGAAPGHRVLPCGPSPQHHRALRFSYHLEGSQPRPGLHQGNRILVKSLSLDPGQSLEPHPEGPQRLRSDPGPPTETPSQRPSPLKRAPGPKPQVPPKPSYLQMPRMPPPLEPIPPPPSRPLPADPRVAKGLAPRAEASPSSAAVSSLIEKFEREPVIVASDRPVPGPSPGPPEPVMLPQPTSQPPVPQLPEGEASRCLFLLAPGPRDGEKVPNRDSGIDSISSPSNSEETCFVSDDGPPSHSLCPGPPALASVPVALADPHRPGSQEVDSDLEEEDDEEEEEEKDREIPVPLMERQESVELTVQQKVFHIANELLQTEKAYVSRLHLLDQVFCARLLEEARNRSSFPADVVHGIFSNICSIYCFHQQFLLPELEKRMEEWDRYPRIGDILQKLAPFLKMYGEYVKNFDRAVELVNTWTERSTQFKVIIHEVQKEEACGNLTLQHHMLEPVQRIPRYELLLKDYLLKLPHGSPDSKDAQKSLELIATAAEHSNAAIRKMERMHKLLKVYELLGGEEDIVSPTKELIKEGHILKLSAKNGTTQDRYLILFNDRLLYCVPRLRLLGQKFSVRARIDVDGMELKESSNLNLPRTFLVSGKQRSLELQARTEEEKKDWVQAINSTLLKHEQTLETFKLLNSTNREDEDTPPNSPNVDLGKRAPTPIREKEVTMCMRCQEPFNSITKRRHHCKACGHVVCGKCSEFRARLVYDNNRSNRVCTDCYVALHGVPGSSPACSQHTPQRRRSILEKQASVAAENSVICSFLHYMEKGGKGWHKAWFVVPENEPLVLYIYGAPQDVKAQRSLPLIGFEVGPPEAGERPDRRHVFKITQSHLSWYFSPETEELQRRWMAVLGRAGRGDTFCPGPTLSEDREMEEAPVAALGATAEPPESPQTRDKT
binding: no binding
